According to PubChem BioAssay AID1794844 (National Center for Advancing Translational Sciences (NCATS), 2023):
Fewer than 10 of roughly 2,800 compounds were called active. Inconclusive results (about 7%) are left out. Calls follow the shape of the dose curve; as a rule, active = well fitted inhibition curve with a large enough effect; inconclusive = small, poorly fitted or top-dose-only effect; inactive = no such curve, though single readings can be large or run the other way. The list shows a part of the results.

By UniProt entry, the sequences of proteins in these tests, tags left out. Where a name states a change or a piece, a line headed by the entry shows the natural chain unless it says otherwise.
UniProt C7C422: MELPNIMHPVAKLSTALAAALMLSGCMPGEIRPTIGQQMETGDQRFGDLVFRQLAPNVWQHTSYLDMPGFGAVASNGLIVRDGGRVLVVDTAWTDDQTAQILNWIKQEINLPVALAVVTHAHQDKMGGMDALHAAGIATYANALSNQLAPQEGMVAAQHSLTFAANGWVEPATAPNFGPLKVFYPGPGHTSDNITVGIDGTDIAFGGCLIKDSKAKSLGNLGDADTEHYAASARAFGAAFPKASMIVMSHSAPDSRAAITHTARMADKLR

What follows are molecules tested against Metallo-beta-lactamase type 2 (Klebsiella pneumoniae) (UniProt C7C422) (assay: qHTS to identify inhibitors of the New Delhi Metallo-beta-lactamase (NDM): Nitrocefin screen against the machine-based learning selections.). Conditions: NDM-1 enzyme, nitrocefin hydrolysis, absorbance 485 nm; activity, negative = inhibition: at the top concentration.
Method in brief: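 NDM-1 (2 nM final) in 50 mM HEPES pH 7.0, 1 uM Zn2SO4, 0.01% Tween20 was preincubated with compounds for >30 min. Nitrocefin (16.7 uM final) was read at 485 nm after 15 min, and meropenem (50 uM final) at 300 nm after 30 min.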
Also: % of control where 0% means no effect.

activity, negative = inhibition, inactive:
COCCNc1ncccc1-c1noc([C@@H]2CCCN2CC(C)(C)C)n1 2.4% [at 57.5 µM], O=C(O)c1ccc(C2CCCN(C(=O)c3cccc4cccnc34)C2)cc1 (stereo not given) -0.824%, c1ccc(Nc2cc3c(cn2)CN(Cc2ccsc2)CCN3)cc1 2.07% [at 57.5 µM], O=C(Cc1ccccc1C(F)(F)F)N1CCC2(CC1)[C@H](O)C[C@@H]2O -5.52%, c1ccc(-c2cc3c(cn2)CN(Cc2c[nH]c4ccccc24)CCN3)cc1 -0.4% [at 57.5 µM], C[C@@H](NS(=O)(=O)c1ccc(Cl)cc1)c1onc(-c2cccnc2)c1C(=O)O 9.86% [at 57.5 µM], CSCC(=O)N1CC[C@H](NC(=O)Nc2cccc(SC)c2)[C@H]1C(=O)N[C@@H](Cc1cccs1)C(N)=O -0.281%, CCc1nc2c(c(-c3ccc(O)cc3)n1)CN(Cc1ccccc1OC)CC2 5.69%, O=C(O)Cn1ccc2cc(OCCc3cccc(-c4ccccc4)c3)cnc21 -6.39% [at 57.5 µM], COc1ccc(C(=O)NC[C@H]2O[C@@H](CC(=O)N3CCN(c4ccccc4OC)CC3)[C@H](O)[C@@H]2O)cc1 1.54%, COc1cc(F)cc(-c2cnc3[nH]cc(CC(=O)NCc4cccnc4)c3c2)c1 -3.73% [at 57.5 µM], COCC(=O)NC[C@H]1OC[C@@H](NC2CCC2)[C@@H]1O -0.0925% [at 76.7 µM], CCOC(=O)C[C@@H]1C[C@@H](C(C)C)[C@H](CNC(=O)c2ccc(F)cc2)C=C1C -0.664% [at 57.5 µM], Cc1cccc2c1nc1n2[C@@H](CNCc2ccccc2)COC1 1.33% [at 57.5 µM], CC(C)N1C(=O)CO[C@H](c2ccc(NC(=O)c3ccccc3)cc2)[C@H]1CO -4.04% [at 57.5 µM], COc1ccc(C(=O)N[C@H](C)c2onc(-c3ccc(F)cc3)c2C(=O)O)cc1 -4.49% [at 57.5 µM], Cc1cc(Cn2cc3c4c(cccc42)[C@H](CC(C)C)N[C@H](C(=O)N2CCN(C)CC2)C3)no1 -2.8%, O=C(Nc1ccccc1)c1cnc2n1CCN(Cc1cccc(O)c1)CC2 -2.02% [at 57.5 µM], O=C(NC1CCCN(c2cc(-c3ccc(F)cc3)[nH]n2)C1)c1cccc(Cl)c1 (stereo not given) 5.89%, O=C(NCc1nncn1C1CCCCC1)C1NCCc2[nH]cnc21 (stereo not given) -7.48%, NC(=O)c1cccc(-c2cc3c(cn2)CN(CCc2ccccc2)CCN3)c1 -2.25% [at 57.5 µM], CC1=C[C@@H](CNS(=O)(=O)c2ccc(F)cc2)[C@H](C(C)C)C[C@H]1CC(=O)NCCN(C)C -6.08%, COc1ccc(CN2CCC3(CCC(=O)N(Cc4ccncc4)C3)CC2)c(F)c1 2.84%, CC(=O)N[C@@H]1CCC[C@@H](C(=O)NC2CCOCC2)CC(=O)N(C)C1 -3.93% [at 57.5 µM], O[C@@H]1CCN(Cc2nc(C3(O)CCN(C4CCCC4)CC3)cs2)C1 5.52% [at 57.5 µM], COc1ccc(C[C@H](NC(=O)[C@@]2(O)C[C@@H](O)[C@H](O)[C@@H](NC(=O)Nc3ccc(C(C)=O)cc3)C2)C(N)=O)cc1 4.16%, COCc1nnc2n1CCC(NC(=O)COc1ccc(Cl)cc1)CC2 (stereo not given) 9.46%, COc1ccc(CNC(=O)C[C@@H]2C[C@H]3O[C@H](CNC(=O)NC(C)C)[C@@H](O)[C@H]3O2)cc1 -0.199% [at 57.5 µM], O=C(c1ccncc1)N1CC[C@H](c2nnc(-c3ccncc3)o2)C1 -3.81% [at 57.5 µM], O=C(NC[C@H]1OC[C@@H](NCc2cccs2)[C@@H]1O)Nc1ccccc1 1.17% [at 57.5 µM], Cc1cccc(N(C)C(=O)Cn2c(N3CCc4ccccc4C3)nc(C)cc2=O)c1 -2.53%, N#Cc1cccc(NC(=O)c2cccc(CN3CCN(CCO)CC3)c2)c1 -3.36%, O=C(N[C@H](Cc1ccncc1)C1CC(O)C1)c1cccn1C1CC1 (stereo not given in full) -0.812%, O=C(Nc1ccc(-c2nnc3n2CCCC3)cc1)c1ccc2c(c1)OCO2 -3.5%, COc1cccc(CCC(=O)N2CCC3(CC2)N(c2ccccc2)C(=O)CS3(=O)=O)c1 -0.766%, Cn1cc(CN[C@H]2C[C@H]3C(=O)NC[C@@H](CCC(=O)N4CCc5ccccc54)N3C2)c2ccccc21 6.32%, CC(=O)N1CCN(C(=O)C[C@@H]2c3nc(NC(=O)C(C)(C)C)sc3C[C@@H]3[C@](C)(CO)[C@H](O)CC[C@]32C)CC1 -12.4%, O=C(NC1CCC(O)CC1)c1ccc(-c2ncc3cnc(-c4ccccc4)cn23)cc1 (stereo not given) 4.39% [at 76.7 µM], COc1cc(C)c2c(c1C)C[C@H](C(C)C(=O)NCc1cccs1)CC2 (stereo not given in full) -6.74% [at 57.5 µM], c1ccc(CCN2CCNc3cc(NCc4cccnc4)ncc3C2)cc1 0.161% [at 57.5 µM], Cc1ccc(OC2(C(=O)NC(C)c3nn[nH]n3)CCNCC2)cc1 (stereo not given) -7.4%, O=C(N[C@@H]1CCN(Cc2cccc3nonc23)C[C@H]1O)c1cccnc1 -1.15%, COC(=O)[C@H](NC(=O)[C@@H]1C[C@@H](NS(=O)(=O)c2cccc(C(F)(F)F)c2)CCN1C(=O)CCC(=O)O)C(C)C -6.21%, Cn1cc(-c2cnc3[nH]cc(CC(=O)Nc4cccnc4)c3c2)cn1 2.9% [at 57.5 µM], Cc1ccc(-c2nnc([C@H]3CCN(C(=O)CCC(=O)O)C3)o2)cc1 -4.13% [at 57.5 µM], C[S+](=O)([O-])c1ccc(-c2cnc3n[nH]c(-c4ccccc4)c3n2)cc1 9.34% [at 57.5 µM], OCC1CN(Cc2cscn2)CCC12CCN(Cc1ccccc1)CC2 (stereo not given) 0.811%, O=C(O)c1ccc(NCc2nc3c(n2Cc2ccccc2)C(=O)N(Cc2cccc(Cl)c2)CCN3)cc1 10.8%, O=C(CCn1cnnn1)N1CCC2(CC1)Nc1ccccc1NC2=O -1.98%, CSc1ccc(-c2nc(CN(C)Cc3cnccn3)c(C)o2)cc1 -7.39%, COc1ccccc1Oc1ncccc1CNC(=O)Nc1cccc(C#N)c1 -1.57%, OC(c1nc(Nc2cccc(Cl)c2)n[nH]1)C1CC1 (stereo not given) 1.69% [at 76.7 µM], Cc1cccc(-c2cccc(CCOc3cnc4c(ccn4CC(=O)O)c3)c2)c1 -9.73% [at 57.5 µM], CC[C@H]1CN(C(C)=O)CC[C@H]1CC(=O)NC(C)C -1.15% [at 76.7 µM], Oc1cccc(-c2cnc3n[nH]c(-c4ccccc4)c3n2)c1 -19.7% [at 76.7 µM], COc1ccc2[nH]c3c(c2c1)CCN(C)C31CCN(C(=O)c2ccccn2)CC1 -4.02%, CN1CCC(N2CC3(C2)C(=O)N(C)C(=O)[C@@H]2C[C@@H](O)CN23)CC1 -11.3% [at 57.5 µM], O=C(O)C1Cc2nc[nH]c2CN1C(=O)c1cccc(-n2cccn2)c1 (stereo not given) -15.3%, N[C@@H](Cc1cnc[nH]1)C(=O)N1CCC2(CC1)Nc1ccccc1NC2=O 14.7%, Clc1ccc(-c2cnc([C@@H]3COCCN3C3CCNCC3)[nH]2)s1 5.84% [at 57.5 µM], Cn1ccc(NC(=O)C2(C)CCCc3cnc(NCc4ccccc4)nc32)n1 (stereo not given) -0.304% [at 57.5 µM], Cc1ccc2c(c1)N1C(=O)OC[C@@H]1CCN(Cc1cccc(Cl)c1)C2 0.884% [at 57.5 µM], CN(Cc1cc2n(n1)CCNC2)Cc1nc2ccsc2c(=O)[nH]1 -9.88%, CSCC(=O)N1C[C@@H](NC(=O)NC2CCCCC2)C[C@H]1C(=O)N[C@H](Cc1c[nH]c2ccccc12)C(N)=O -1.83%, CCOCCN1C(=O)COC[C@@H]1[C@H](O)c1ccc(NC(=O)Cc2ccccc2)cc1 5.26% [at 57.5 µM], O=C1Nc2ccccc2O[C@H]2C[C@@H]1N(Cc1ccc3ccccc3n1)C2 -5.7% [at 57.5 µM], COCc1noc(CCNc2cc(C)nc(-c3ccccc3O)n2)n1 -2.07%, COc1ccc(-c2ccnc(N[C@H]3CO[C@H]4[C@@H]3OC[C@H]4OC(=O)Nc3cccc(OC)c3)n2)cc1 0.655%, Clc1ccc(-c2cnc3n2C[C@H](CNCc2ccc4c(c2)OCO4)OC3)cc1 1.4% [at 57.5 µM], Cc1cc(C)n2nc(C(=O)N3CCC(Cc4cccc(C(N)=O)c4)C3)nc2n1 (stereo not given) -1.01%, COCc1cc(=O)n(CC(=O)Nc2cccc(F)c2)c(N2CCOCC2)n1 -5.04%, CN(Cc1ccsc1)CC1(O)CCCN(CCCc2ccccc2)C1=O (stereo not given) -7.5%, Cc1ncccc1C(=O)N1CCC(N2CC3CC(C2)[C@H]2CCCC(=O)N2C3)CC1 (stereo not given in full) 1.4%, C=CCN(C)C(=O)[C@@H](C)C1CC[C@@]2(C)Cc3sc(NCCCC)nc3[C@@H](C)[C@@H]2[C@H]1O (stereo not given in full) -2.55% [at 57.5 µM], O=[N+]([O-])c1cccc(-c2noc([C@@H]3C[C@@H](O)CN3Cc3ccccc3)n2)c1 -1.06% [at 57.5 µM], COc1ccc(-c2nnc3n2CCN(C(=O)N(C)C)C3)cc1 2.36% [at 57.5 µM], Cn1c(=O)[nH]cc(CC(=O)N2CCCC(c3cccc(C(=O)O)c3)C2)c1=O (stereo not given) 240%, Cn1ncc(N2CCC(CNC(=O)c3cccc(-c4ncc[nH]4)c3)C2)cc1=O (stereo not given) 1.92%, Cc1cc(C(=O)N2CC(N(C3CCOCC3)S(C)(=O)=O)C2)nn1C 2.04%, CCNC(=O)NC[C@@H]1C=C(C)[C@H](CC(=O)NCc2ccccn2)C[C@H]1C(C)C -21.3% [at 57.5 µM], CN(Cc1ccccc1)Cc1cn([C@H]2CO[C@H]3[C@@H]2OC[C@@H]3NCc2ccccc2)nn1 0% [at 57.5 µM], Cc1ccc2c(c1)c(Cn1cnc(-c3ccccc3)c1-c1cnc[nH]1)nn2C 0.619%, CCCC1(CO)CCCN(CC(=O)NC(C)(C)CC)C1 (stereo not given) -1.95%, CCCN(CC1CCOC1)C(=O)Nc1cccc(F)c1C (stereo not given) 1.38%, Cn1c(COc2cccc(C(F)(F)F)c2Cl)nnc1C1CC(N)C1 (stereo not given) 1.95%, COc1cccc(-c2cc(C(=O)NCCNc3nc(C)cc(=O)[nH]3)[nH]n2)c1 8.33%, O=C(N1CCC2(CCCCO2)CC1)C1(c2ccccc2)CC1 2.89%, O=C1CCCCC(C(=O)N2CCOCC2)N1 (stereo not given) -8.89%, OC(c1cccc(C(F)(F)F)c1)c1nc(Nc2ccc(F)cc2)n[nH]1 (stereo not given) 3.6% [at 57.5 µM], COCC(=O)N1C[C@@H]2C[C@H]1C(=O)N(Cc1ccccn1)c1ccccc1O2 -2.07% [at 57.5 µM], COc1ccc(-c2[nH]nc3ncc(-c4ccccc4O)nc23)cc1F -7.73% [at 57.5 µM], O=c1cc(-c2ccncc2)oc2c(-c3cccc(O)c3)nccc12 10.7% [at 57.5 µM], O=C(NC1CCCCC1)O[C@@H]1CO[C@H]2[C@@H]1OC[C@@H]2n1nnnc1-c1ccc2c(c1)OCCO2 0.868%, CN1C[C@H](NCC2CC2)CCC[C@@H](C(=O)NCc2cc(F)cc(F)c2)CC1=O -0.247% [at 57.5 µM], O=C1N(CCCCOc2ccccc2)c2ccccc2NC12CCNCC2 7.34%
